# Assay results as given in patent publication US20130323795.
# Biological target: Endonuclease V Y75A mutant (Escherichia coli) (UniProt P68739)
# Experiment: binding assay
# Details: inosine at penultimate 3' position [16 (inosine, written as G)]; purified recombinant protein; letters built from the parent sequence and the stated change
sequence,measurement,value
CCCGCAAAGTTCCTCGA (double strand),binding result,binds

# The exact form of at least one protein or probe is not confirmed.
